Results reported in PMC11924114.
These are yes or no findings as the source states them, for the method shown. In cells and extracts the contact can be indirect. Some binding calls cover weakened binding; strength is not graded here.

Sequences of proteins named here, by UniProt entry; tags and fusion partners are left off.
UniProt Q9ULW0: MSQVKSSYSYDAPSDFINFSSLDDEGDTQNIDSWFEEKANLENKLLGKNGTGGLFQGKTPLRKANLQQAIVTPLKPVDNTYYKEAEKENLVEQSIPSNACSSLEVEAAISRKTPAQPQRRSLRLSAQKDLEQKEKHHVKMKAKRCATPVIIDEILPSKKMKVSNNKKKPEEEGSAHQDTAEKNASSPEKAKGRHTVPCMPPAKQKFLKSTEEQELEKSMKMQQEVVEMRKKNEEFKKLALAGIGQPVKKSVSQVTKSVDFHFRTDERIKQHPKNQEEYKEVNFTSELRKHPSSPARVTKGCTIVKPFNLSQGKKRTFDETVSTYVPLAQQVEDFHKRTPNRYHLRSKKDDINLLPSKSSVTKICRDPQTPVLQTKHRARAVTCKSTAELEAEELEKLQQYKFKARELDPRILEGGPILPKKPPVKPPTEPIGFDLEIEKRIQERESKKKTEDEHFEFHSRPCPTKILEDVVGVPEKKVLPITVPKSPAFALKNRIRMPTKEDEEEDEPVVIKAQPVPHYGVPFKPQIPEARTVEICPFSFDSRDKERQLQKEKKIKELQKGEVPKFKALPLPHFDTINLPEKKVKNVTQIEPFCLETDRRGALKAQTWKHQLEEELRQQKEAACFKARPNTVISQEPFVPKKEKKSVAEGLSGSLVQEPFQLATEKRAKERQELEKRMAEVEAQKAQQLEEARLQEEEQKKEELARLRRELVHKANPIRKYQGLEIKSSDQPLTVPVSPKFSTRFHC
UniProt Q92793: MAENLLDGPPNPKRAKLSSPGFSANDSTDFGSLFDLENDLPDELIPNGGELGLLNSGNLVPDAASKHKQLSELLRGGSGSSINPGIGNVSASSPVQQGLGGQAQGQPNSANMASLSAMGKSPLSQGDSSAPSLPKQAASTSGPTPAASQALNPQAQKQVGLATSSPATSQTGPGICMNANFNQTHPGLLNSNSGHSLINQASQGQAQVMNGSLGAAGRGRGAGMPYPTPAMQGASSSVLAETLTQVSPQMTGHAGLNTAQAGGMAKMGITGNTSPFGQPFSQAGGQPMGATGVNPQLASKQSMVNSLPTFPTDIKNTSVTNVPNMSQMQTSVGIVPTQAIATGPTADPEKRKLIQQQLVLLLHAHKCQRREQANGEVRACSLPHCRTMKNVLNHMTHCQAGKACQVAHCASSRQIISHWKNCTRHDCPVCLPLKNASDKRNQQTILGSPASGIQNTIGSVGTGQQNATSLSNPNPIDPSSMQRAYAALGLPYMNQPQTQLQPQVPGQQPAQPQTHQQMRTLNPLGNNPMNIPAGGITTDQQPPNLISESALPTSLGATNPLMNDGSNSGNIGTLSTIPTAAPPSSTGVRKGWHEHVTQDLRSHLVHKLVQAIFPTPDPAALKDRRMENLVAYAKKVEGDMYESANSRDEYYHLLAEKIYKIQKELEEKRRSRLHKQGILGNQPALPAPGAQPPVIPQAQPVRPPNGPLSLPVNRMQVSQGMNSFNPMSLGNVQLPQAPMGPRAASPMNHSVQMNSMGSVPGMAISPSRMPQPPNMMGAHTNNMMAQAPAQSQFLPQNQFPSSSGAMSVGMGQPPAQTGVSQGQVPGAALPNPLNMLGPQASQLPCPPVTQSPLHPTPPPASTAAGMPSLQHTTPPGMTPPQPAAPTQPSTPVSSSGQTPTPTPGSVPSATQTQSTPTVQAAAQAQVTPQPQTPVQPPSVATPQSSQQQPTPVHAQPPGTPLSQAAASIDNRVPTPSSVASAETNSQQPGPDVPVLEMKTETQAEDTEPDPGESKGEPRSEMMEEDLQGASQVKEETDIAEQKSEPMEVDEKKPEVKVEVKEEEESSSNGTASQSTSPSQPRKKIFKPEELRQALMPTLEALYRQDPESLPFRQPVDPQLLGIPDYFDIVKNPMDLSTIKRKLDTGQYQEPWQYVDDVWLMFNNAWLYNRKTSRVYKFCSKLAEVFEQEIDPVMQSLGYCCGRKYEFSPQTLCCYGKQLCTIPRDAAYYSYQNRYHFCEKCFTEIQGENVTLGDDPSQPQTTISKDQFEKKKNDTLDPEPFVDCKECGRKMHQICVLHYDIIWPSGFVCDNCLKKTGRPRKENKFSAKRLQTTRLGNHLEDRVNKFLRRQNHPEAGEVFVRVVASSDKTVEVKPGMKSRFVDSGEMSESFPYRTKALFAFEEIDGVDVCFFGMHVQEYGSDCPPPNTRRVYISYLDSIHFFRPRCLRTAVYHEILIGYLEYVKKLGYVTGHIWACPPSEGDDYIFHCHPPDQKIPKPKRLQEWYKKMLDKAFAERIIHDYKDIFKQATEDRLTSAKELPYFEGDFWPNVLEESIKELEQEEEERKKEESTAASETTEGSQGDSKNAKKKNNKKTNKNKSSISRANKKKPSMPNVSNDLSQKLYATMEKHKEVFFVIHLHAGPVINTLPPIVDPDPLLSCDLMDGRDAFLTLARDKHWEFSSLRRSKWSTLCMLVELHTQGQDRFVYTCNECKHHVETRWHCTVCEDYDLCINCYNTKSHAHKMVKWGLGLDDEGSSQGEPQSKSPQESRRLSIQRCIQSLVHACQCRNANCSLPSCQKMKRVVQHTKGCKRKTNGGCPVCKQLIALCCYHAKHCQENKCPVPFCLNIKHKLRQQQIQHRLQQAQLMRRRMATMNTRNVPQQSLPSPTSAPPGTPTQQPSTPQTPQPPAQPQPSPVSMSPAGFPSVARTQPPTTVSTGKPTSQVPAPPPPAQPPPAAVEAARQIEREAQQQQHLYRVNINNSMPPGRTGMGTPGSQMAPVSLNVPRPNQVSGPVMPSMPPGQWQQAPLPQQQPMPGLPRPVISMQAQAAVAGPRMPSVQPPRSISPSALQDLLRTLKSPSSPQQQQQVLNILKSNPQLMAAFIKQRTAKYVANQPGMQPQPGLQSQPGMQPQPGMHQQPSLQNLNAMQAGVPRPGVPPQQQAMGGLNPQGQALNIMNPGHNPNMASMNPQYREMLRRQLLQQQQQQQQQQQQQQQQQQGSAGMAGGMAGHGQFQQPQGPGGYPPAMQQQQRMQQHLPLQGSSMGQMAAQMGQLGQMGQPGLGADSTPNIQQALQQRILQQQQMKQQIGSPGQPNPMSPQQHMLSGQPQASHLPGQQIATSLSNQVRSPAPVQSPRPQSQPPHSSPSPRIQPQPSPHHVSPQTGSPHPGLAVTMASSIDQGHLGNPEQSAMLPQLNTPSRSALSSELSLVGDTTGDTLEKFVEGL
UniProt Q13547: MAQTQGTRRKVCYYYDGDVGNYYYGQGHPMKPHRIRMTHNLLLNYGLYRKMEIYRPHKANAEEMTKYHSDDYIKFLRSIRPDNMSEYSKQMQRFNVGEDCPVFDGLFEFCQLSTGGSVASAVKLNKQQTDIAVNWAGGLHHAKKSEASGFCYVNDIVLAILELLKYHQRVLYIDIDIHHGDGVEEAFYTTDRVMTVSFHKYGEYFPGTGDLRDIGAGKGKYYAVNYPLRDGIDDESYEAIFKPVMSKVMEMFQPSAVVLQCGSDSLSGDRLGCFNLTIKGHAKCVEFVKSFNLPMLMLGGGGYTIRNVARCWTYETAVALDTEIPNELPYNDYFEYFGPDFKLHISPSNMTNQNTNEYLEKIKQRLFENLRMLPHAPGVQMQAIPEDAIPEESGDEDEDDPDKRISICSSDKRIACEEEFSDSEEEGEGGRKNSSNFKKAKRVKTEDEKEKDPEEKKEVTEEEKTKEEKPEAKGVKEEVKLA

Target: HA-TPX2 (UniProt Q9ULW0)
Assay: co-IP; HEK293T cells overexpressing a Flag-tagged protein (CBP or HDAC1) and HA-TPX2; IP buffer, protein A/G beads, Western blot

| binding | Substance |
| --- | --- |
| binds | Flag-CBP (from UniProt Q92793 1-2442) (enzyme) |
| binds | Flag-HDAC1 (from UniProt Q13547 1-482) (enzyme) |
